Experimental findings from patent publication US12729225B2, “Non-canonical SWI/SNF complex and uses thereof” (Dana-Farber Cancer Institute, Inc., priority 2018, dated 2026) are described below.

The subject of the series is mSWI/SNF complexes. Nature of the series: mSWI/SNF complex purification with HA-tagged baits and mass spectrometry (peptide counts). On the set-up: species or system human.
Where [1] appears, read: 293_HA-BRD7 bait purification, mass spectrometry, total peptide count per identified protein.
Setting [2] is: 293_HA-BRD7 bait purification, mass spectrometry, unique peptide count per identified protein.

B1: ACTL6B (protein)
chain: MSGGVYGGDEVGALVFDIGSFSVRAGYAGEDCPKADFPTTVGLLAAEEGGGLELEGDKEKKGKIFHIDTNALHVPRDGAEVMSPLKNGMIEDWECFRAILDHTYSKHVKSEPNLHPVLMSEAPWNTRAKREKLTELMFEQYNIPAFFLCKTAVLTAFANGRSTGLVLDSGATHTTAIPVHDGYVLQQGIVKSPLAGDFISMQCRELFQEMAIDIIPPYMIAAKEPVREGAPPNWKKKEKLPQVSKSWHNYMCNEVIQDFQASVLQVSDSPYDEQVAAQMPTVHYEMPNGYNTDYGAERLRIPEGLFDPSNVKGLSGNTMLGVGHVVTTSIGMCDIDIRPGLYGSVIVTGGNTLLQGFTDRLNRELSQKTPPSMRLKLIASNSTMERKFSPWIGGSILASLGTFQQMWISKQEYEEGGKQCVERKCP
B1 came in with a Total under setting [1] of 1. The Unique under setting [2] is 1.

B2: CPSF2 (protein, UniProt Q9P2I0 1-782, looked up)
Cleavage and polyadenylation …: MTSIIKLTTLSGVQEESALCYLLQVDEFRFLLDCGWDEHFSMDIIDSLRKHVHQIDAVLLSHPDPLHLGALPYAVGKLGLNCAIYATIPVYKMGQMFMYDLYQSRHNTEDFTLFTLDDVDAAFDKIQQLKFSQIVNLKGKGHGLSITPLPAGHMIGGTIWKIVKDGEEEIVYAVDFNHKREIHLNGCSLEMLSRPSLLITDSFNATYVQPRRKQRDEQLLTNVLETLRGDGNVLIAVDTAGRVLELAQLLDQIWRTKDAGLGVYSLALLNNVSYNVVEFSKSQVEWMSDKLMRCFEDKRNNPFQFRHLSLCHGLSDLARVPSPKVVLASQPDLECGFSRDLFIQWCQDPKNSIILTYRTTPGTLARFLIDNPSEKITEIELRKRVKLEGKELEEYLEKEKLKKEAAKKLEQSKEADIDSSDESDIEEDIDQPSAHKTKHDLMMKGEGSRKGSFFKQAKKSYPMFPAPEERIKWDEYGEIIKPEDFLVPELQATEEEKSKLESGLTNGDEPMDQDLSDVPTKCISTTESIEIKARVTYIDYEGRSDGDSIKKIINQMKPRQLIIVHGPPEASQDLAECCRAFGGKDIKVYMPKLHETVDATSETHIYQVRLKDSLVSSLQFCKAKDAELAWIDGVLDMRVSKVDTGVILEEGELKDDGEDSEMQVEAPSDSSVIAQQKAMKSLFGDDEKETGEESEIIPTLEPLPPHEVPGHQSVFMNEPRLSDFKQVLLREGIQAEFVGGVLVCNNQVAVRRTETGRIGLEGCLCQDFYRIRDLLYEQYAIV
For the molecule B2, the Total (293_HA-BRD7: HA-BRD7 bait purification, total peptide count per co-purified protein) is 14. This molecule came in with a Unique (293_HA-BRD7: HA-BRD7 bait purification, unique peptide count per co-purified protein) of 13.

B3: HLTF (protein, UniProt Q14527 1-1009, looked up)
Helicase-like transcription …: MSWMFKRDPVWKYLQTVQYGVHGNFPRLSYPTFFPRFEFQDVIPPDDFLTSDEEVDSVLFGSLRGHVVGLRYYTGVVNNNEMVALQRDPNNPYDKNAIKVNNVNGNQVGHLKKELAGALAYIMDNKLAQIEGVVPFGANNAFTMPLHMTFWGKEENRKAVSDQLKKHGFKLGPAPKTLGFNLESGWGSGRAGPSYSMPVHAAVQMTTEQLKTEFDKLFEDLKEDDKTHEMEPAEAIETPLLPHQKQALAWMVSRENSKELPPFWEQRNDLYYNTITNFSEKDRPENVHGGILADDMGLGKTLTAIAVILTNFHDGRPLPIERVKKNLLKKEYNVNDDSMKLGGNNTSEKADGLSKDASRCSEQPSISDIKEKSKFRMSELSSSRPKRRKTAVQYIESSDSEEIETSELPQKMKGKLKNVQSETKGRAKAGSSKVIEDVAFACALTSSVPTTKKKMLKKGACAVEGSKKTDVEERPRTTLIICPLSVLSNWIDQFGQHIKSDVHLNFYVYYGPDRIREPALLSKQDIVLTTYNILTHDYGTKGDSPLHSIRWLRVILDEGHAIRNPNAQQTKAVLDLESERRWVLTGTPIQNSLKDLWSLLSFLKLKPFIDREWWHRTIQRPVTMGDEGGLRRLQSLIKNITLRRTKTSKIKGKPVLELPERKVFIQHITLSDEERKIYQSVKNEGRATIGRYFNEGTVLAHYADVLGLLLRLRQICCHTYLLTNAVSSNGPSGNDTPEELRKKLIRKMKLILSSGSDEECAICLDSLTVPVITHCAHVFCKPCICQVIQNEQPHAKCPLCRNDIHEDNLLECPPEELARDSEKKSDMEWTSSSKINALMHALTDLRKKNPNIKSLVVSQFTTFLSLIEIPLKASGFVFTRLDGSMAQKKRVESIQCFQNTEAGSPTIMLLSLKAGGVGLNLSAASRVFLMDPAWNPAAEDQCFDRCHRLGQKQEVIITKFIVKDSVEENMLKIQNKKRELAAGAFGTKKPNADEMKQAKINEIRTLIDL
As for B3, under setting [1], the Total stood at 1. This molecule also gave a Unique under setting [2] of 1.

B4: VDAC3 (protein, UniProt Q9Y277 2-283, looked up)
Non-selective voltage-gated …: CNTPTYCDLGKAAKDVFNKGYGFGMVKIDLKTKSCSGVEFSTSGHAYTDTGKASGNLETKYKVCNYGLTFTQKWNTDNTLGTEISWENKLAEGLKLTLDTIFVPNTGKKSGKLKASYKRDCFSVGSNVDIDFSGPTIYGWAVLAFEGWLAGYQMSFDTAKSKLSQNNFALGYKAADFQLHTHVNDGTEFGGSIYQKVNEKIETSINLAWTAGSNNTRFGIAAKYMLDCRTSLSAKVNNASLIGLGYTQTLRPGVKLTLSALIDGKNFSAGGHKVGLGFELEA
In turn, B4 had a Total under setting [1] of 1. Also, the Unique under setting [2] was 1.

B5: NKAPL (protein, UniProt Q5M9Q1 1-402, looked up)
NKAP-like protein: MPPVSRSSYSEDIVGSRRRRRSSSGSPPSPQSRCSSWDGCSRSHSRGREGLRPPWSELDVGALYPFSRSGSRGRLPRFRNYAFASSWSTSYSGYRYHRHCYAEERQSAEDYEKEESHRQRRLKERERIGELGAPEVWGPSPKFPQLDSDEHTPVEDEEEVTHQKSSSSDSNSEEHRKKKTSRSRNKKKRKNKSSKRKHRKYSDSDSNSESDTNSDSDDDKKRVKAKKKKKKKKHKTKKKKNKKTKKESSDSSCKDSEEDLSEATWMEQPNVADTMDLIGPEAPIIHTSQDEKPLKYGHALLPGEGAAMAEYVKAGKRIPRRGEIGLTSEEIGSFECSGYVMSGSRHRRMEAVRLRKENQIYSADEKRALASFNQEERRKRESKILASFREMVHKKTKEKDDK
Under setting [1], B5 had a Total of 1. This molecule came in with a Unique under setting [2] of 1.

B6: NSUN5 (protein, UniProt Q96P11 2-429, looked up)
28S rRNA …: GLYAAAAGVLAGVESRQGSIKGLVYSSNFQNVKQLYALVCETQRYSAVLDAVIASAGLLRAEKKLRPHLAKVLVYELLLGKGFRGGGGRWKALLGRHQARLKAELARLKVHRGVSRNEDLLEVGSRPGPASQLPRFVRVNTLKTCSDDVVDYFKRQGFSYQGRASSLDDLRALKGKHFLLDPLMPELLVFPAQTDLHEHPLYRAGHLILQDRASCLPAMLLDPPPGSHVIDACAAPGNKTSHLAALLKNQGKIFAFDLDAKRLASMATLLARAGVSCCELAEEDFLAVSPSDPRYHEVHYILLDPSCSGSGMPSRQLEEPGAGTPSPVRLHALAGFQQRALCHALTFPSLQRLVYSTCSLCQEENEDVVRDALQQNPGAFRLAPALPAWPHRGLSTFPGAEHCLRASPETTLSSGFFVAVIERVEVPR
Consider B6, for which, under setting [1], the Total is listed as 1. Besides, the Unique under setting [2] came out at 1.

B7: FECH (protein, UniProt P22830 55-423, looked up)
Ferrochelatase, mitochondrial: GAKPQVQPQKRKPKTGILMLNMGGPETLGDVHDFLLRLFLDRDLMTLPIQNKLAPFIAKRRTPKIQEQYRRIGGGSPIKIWTSKQGEGMVKLLDELSPNTAPHKYYIGFRYVHPLTEEAIEEMERDGLERAIAFTQYPQYSCSTTGSSLNAIYRYYNQVGRKPTMKWSTIDRWPTHHLLIQCFADHILKELDHFPLEKRSEVVILFSAHSLPMSVVNRGDPYPQEVSATVQKVMERLEYCNPYRLVWQSKVGPMPWLGPQTDESIKGLCERGRKNILLVPIAFTSDHIETLYELDIEYSQVLAKECGVENIRRAESLNGNPLFSKALADLVHSHIQSNELCSKQLTLSCPLCVNPVCRETKSFFTSQQL
B7: the Total under setting [1] was 1. Under setting [2], the Unique is listed as 1.

B8: ABCD3 (protein, UniProt P28288 1-659, looked up)
ATP-binding cassette …: MAAFSKYLTARNSSLAGAAFLLLCLLHKRRRALGLHGKKSGKPPLQNNEKEGKKERAVVDKVFFSRLIQILKIMVPRTFCKETGYLVLIAVMLVSRTYCDVWMIQNGTLIESGIIGRSRKDFKRYLLNFIAAMPLISLVNNFLKYGLNELKLCFRVRLTKYLYEEYLQAFTYYKMGNLDNRIANPDQLLTQDVEKFCNSVVDLYSNLSKPFLDIVLYIFKLTSAIGAQGPASMMAYLVVSGLFLTRLRRPIGKMTITEQKYEGEYRYVNSRLITNSEEIAFYNGNKREKQTVHSVFRKLVEHLHNFILFRFSMGFIDSIIAKYLATVVGYLVVSRPFLDLSHPRHLKSTHSELLEDYYQSGRMLLRMSQALGRIVLAGREMTRLAGFTARITELMQVLKDLNHGKYERTMVSQQEKGIEGVQVIPLIPGAGEIIIADNIIKFDHVPLATPNGDVLIRDLNFEVRSGANVLICGPNGCGKSSLFRVLGELWPLFGGRLTKPERGKLFYVPQRPYMTLGTLRDQVIYPDGREDQKRKGISDLVLKEYLDNVQLGHILEREGGWDSVQDWMDVLSGGEKQRMAMARLFYHKPQFAILDECTSAVSVDVEGYIYSHCRKVGITLFTVSHRKSLWKHHEYYLHMDGRGNYEFKQITEDTVEFGS
B8 yielded a Total under setting [1] of 1. The Unique under setting [2] was 1.

B9: CHP1 (protein, UniProt Q99653 2-195, looked up)
Calcineurin B homologous …: GSRASTLLRDEELEEIKKETGFSHSQITRLYSRFTSLDKGENGTLSREDFQRIPELAINPLGDRIINAFFPEGEDQVNFRGFMRTLAHFRPIEDNEKSKDVNGPEPLNSRSNKLHFAFRLYDLDKDEKISRDELLQVLRMMVGVNISDEQLGSIADRTIQEADQDGDSAISFTEFVKVLEKVDVEQKMSIRFLH
Under setting [1], B9 returned a Total of 1. Also, the Unique under setting [2] is on record as 1.

B10: ORC3 (protein, UniProt Q9UBD5 1-711, looked up)
Origin recognition complex …: MATSSMSKGCFVFKPNSKKRKISLPIEDYFNKGKNEPEDSKLRFETYQLIWQQMKSENERLQEELNKNLFDNLIEFLQKSHSGFQKNSRDLGGQIKLREIPTAALVLGVNVTDHDLTFGSLTEALQNNVTPYVVSLQAKDCPDMKHFLQKLISQLMDCCVDIKSKEEESVHVTQRKTHYSMDSLSSWYMTVTQKTDPKMLSKKRTTSSQWQSPPVVVILKDMESFATKVLQDFIIISSQHLHEFPLILIFGIATSPIIIHRLLPHAVSSLLCIELFQSLSCKEHLTTVLDKLLLTTQFPFKINEKVLQVLTNIFLYHDFSVQNFIKGLQLSLLEHFYSQPLSVLCCNLPEAKRRINFLSNNQCENIRRLPSFRRYVEKQASEKQVALLTNERYLKEETQLLLENLHVYHMNYFLVLRCLHKFTSSLPKYPLGRQIRELYCTCLEKNIWDSEEYASVLQLLRMLAKDELMTILEKCFKVFKSYCENHLGSTAKRIEEFLAQFQSLDETKEEEDASGSQPKGLQKTDLYHLQKSLLEMKELRRSKKQTKFEVLRENVVNFIDCLVREYLLPPETQPLHEVVYFSAAHALREHLNAAPRIALHTALNNPYYYLKNEALKSEEGCIPNIAPDICIAYKLHLECSRLINLVDWSEAFATVVTAAEKMDANSATSEEMNEIIHARFIRAVSELELLGFIKPTKQKTDHVARLTWGGC
B10: the Total under setting [1] turned out to be 1. Under setting [2], the Unique is 1.
